The subject of this experiment is BDF1 mice, colon carcinoma 38 sc, T/C %. The experiment can be described thus: NCI In Vivo Anticancer Drug Screen. Data for tumor model Colon Carcinoma 38 (subcutaneous) in B6D2F1 (BDF1) mice. The conditions noted are these: T/C endpoint: median tumor weight (est.), higher T/C = larger tumour. As for the experimental part: The antitumor activity of compounds was measured in mice bearing transplantable tumors. Survival or tumor size were measured and the results are expressed as the measurement made in the treated group (T) divided by the measurement made in the vehicle treated control group (C). The tumor model used in this assay is Colon Carcinoma 38 (subcutaneous) in B6D2F1 (BDF1) mice

Where [1] appears, read: dose: 400.0 mg/kg/injection, schedule: Q07DX002 (ip), vehicle: Klucel (hydroxypropylcellulose) (HPC).
Where [2] appears, read: dose: 100.0 mg/kg/injection, schedule: Q07DX002 (ip), vehicle: saline with Tween-80.
Setting [3] is: dose: 100.0 mg/kg/injection, schedule: Q07DX002 (ip), vehicle: saline.
The mark [4] stands for this setting: dose: 200.0 mg/kg/injection, schedule: Q07DX002 (ip), vehicle: saline.
Setting [5] is: dose: 50.0 mg/kg/injection, schedule: Q07DX002 (ip), vehicle: saline, evaluated on day 20.
The mark [6] stands for this setting: dose: 400.0 mg/kg/injection, schedule: Q07DX002 (ip), vehicle: saline.
[7] abbreviates: dose: 50.0 mg/kg/injection, schedule: Q07DX002 (ip), vehicle: Klucel (hydroxypropylcellulose) (HPC), evaluated on day 20.

The list does not hold the whole screen: it gathers tests that were run many times, whatever their T/C, doses with no T/C, and many T/C values between a quarter and a half above the control. Further doses and runs are listed elsewhere. T/C is the treated group as % of the vehicle group. Schedules are NCI's codes, taken here to give the interval after Q, in days (D) or hours (H), and the number of doses after X. Some T/C values are followed by the survivors on the day toxicity was checked, most often the fifth; where none is given, no animal had died by that day. Some entries were tested several times; the results are listed from low to high. Some entries give survivors of the animals treated and no T/C: the source files T/C as zero there, which appears to mark a toxic dose or a test without result, not a measured value. Survivors were counted at the toxicity check, usually on the fifth day, unless a day is given; later deaths do not show.

As to `O=C(O)/C=C/C(=O)Nc1ccc(Cl)c(Cl)c1`, the T/C (dose: 12.5 mg/kg/injection, schedule: Q07DX002 (ip), vehicle: Klucel (hydroxypropylcellulose) (HPC), evaluated on day 20) is 127 % of control. In addition, the survivor count is, setting by setting: (dose: 25.0 mg/kg/injection, schedule: Q07DX003 (ip), vehicle: Klucel (hydroxypropylcellulose) (HPC)) 6 of 10 on day 20; (dose: 200.0 mg/kg/injection, schedule: Q07DX003 (ip), vehicle: Klucel (hydroxypropylcellulose) (HPC)) 6 of 10 on day 20; under setting [1], 3 of 9 on day 20; (dose: 400.0 mg/kg/injection, schedule: Q07DX003 (ip), vehicle: Klucel (hydroxypropylcellulose) (HPC)) 1 of 10 on day 20.

`CN=C(N)N/N=C(\c1ccccc1)c1ccc(Br)cc1`: the T/C (dose: 25.0 mg/kg/injection, schedule: Q07DX002 (ip), vehicle: saline with Tween-80, evaluated on day 20) is 145 % of control. Further, the survivor count under setting [2] is reported as 0 of 10 on day 20.

Take `O=C/C(Cl)=C(/Cl)C(=O)O`: the T/C (dose: 5.0 mg/kg/injection, schedule: Q07DX002 (ip), vehicle: saline with Tween-80, evaluated on day 20) is 132 % of control. The survivor count by setting is: (dose: 40.0 mg/kg/injection, schedule: Q07DX002 (ip), vehicle: saline with Tween-80) 5 of 10 on day 20; (dose: 80.0 mg/kg/injection, schedule: Q07DX002 (ip), vehicle: saline with Tween-80) 0 of 10 on day 20.

Take `O=CC(O)C(O)C(O)C(O)C(=O)O.[NH-]C1CCCCC1[NH-].[Pt+2]` (configuration not stated): the survivor count (dose: 50.0 mg/kg/injection, schedule: Q07DX002 (ip), vehicle: saline) is 0 of 10 on day 20 and 2 of 10 on day 20; the survivor count under setting [3] was 1 of 10 on day 20; the survivor count under setting [4] was 0 of 10 on day 20.

For `CC(=O)NC(C=O)OCC=O` (configuration not stated), the T/C (dose: 12.5 mg/kg/injection, schedule: Q07DX002 (ip), vehicle: water, evaluated on day 20) is 142 % of control. Also, for the setting “dose: 400.0 mg/kg/injection, schedule: Q07DX002 (ip), vehicle: water”, the survivor count is on record as 2 of 10 on day 20.

As to `O=c1n[n+]([O-])ccn1C1OC(CO)C(O)C1O` (configuration not stated), the T/C runs as follows: under setting [5], 128 % of control; (dose: 300.0 mg/kg/injection, schedule: Q07DX002 (ip), vehicle: saline, evaluated on day 20) 131 % of control [9 of 10 alive]; (dose: 400.0 mg/kg/injection, schedule: Q07DX002 (ip), vehicle: saline, evaluated on day 20) 140 % of control.

As for `COC(C(=O)C(O)C(C)O)C1Cc2cc3cc(OC4CC(OC(C)=O)C(OC5CC(O)C(OC)C(C)O5)C(C)O4)cc(O)c3c(O)c2C(=O)C1OC1CC(OC2CC(OC3CC(C)(O)C(OC(=O)C(C)C)C(C)O3)C(O)C(C)O2)C(O)C(C)O1` (configuration not stated), the T/C (dose: 0.25 mg/kg/injection, schedule: Q07DX002 (ip), vehicle: saline with Tween-80, evaluated on day 21) was 135 % of control.

Consider `c1cc(-c2cc3ccc(C4=NCCN4)cc3[nH]2)ccc1C1=NCCN1`, for which the survivor count was 1 of 10 on day 20 under setting [3]; 1 of 10 on day 20 (dose: 100.0 mg/kg/injection, schedule: Q07DX002 (ip), vehicle: suspension in saline); 0 of 10 on day 20 under setting [4]; 1 of 10 on day 20 (dose: 200.0 mg/kg/injection, schedule: Q07DX002 (ip), vehicle: suspension in saline).

In the case of `c1ccc2c(NCCCCCCNc3c4ccccc4nc4ccccc34)c3ccccc3nc2c1`, the T/C (dose: 5.0 mg/kg/injection, schedule: Q07DX002 (ip), vehicle: Klucel (hydroxypropylcellulose) (HPC), evaluated on day 20) was 126 % of control and the T/C (dose: 40.0 mg/kg/injection, schedule: Q07DX002 (ip), vehicle: Klucel (hydroxypropylcellulose) (HPC), evaluated on day 20) was 136 % of control [9 of 10 alive].

Consider `S=C=NCCc1ccccc1`, for which the survivor count (dose: 200.0 mg/kg/injection, schedule: Q07DX002 (ip), vehicle: saline with Tween-80) is reported as 0 of 10 on day 20.

With `COc1cccc2c1C(=O)c1c(O)c3c(c(O)c1C2=O)C[C@@](O)(C(C)=O)C[C@@H]3OC1CC(N)C(O)C(C)O1` (some centres not stated), the survivor count by setting is: (dose: 4.0 mg/kg/injection, schedule: Q07DX002 (ip), vehicle: water) 6 of 10 on day 20; (dose: 8.0 mg/kg/injection, schedule: Q07DX002 (ip), vehicle: water) 1 of 10 on day 20; (dose: 8.0 mg/kg/injection, schedule: Q07DX003 (ip), vehicle: saline) 1 of 9; (dose: 16.0 mg/kg/injection, schedule: Q07DX002 (ip), vehicle: water) 0 of 10 on day 20; (dose: 32.0 mg/kg/injection, schedule: Q07DX002 (ip), vehicle: water) 0 of 10 on day 20.

As for `N=C(N)SCc1c2ccccc2c(CSC(=N)N)c2ccccc12`, the survivor count under setting [6] is given as 2 of 10 on day 20.

Regarding `COc1cccc(C2NC(=O)c3c(n[nH]c3N)S2)c1O` (configuration not stated), the survivor count (dose: 800.0 mg/kg/injection, schedule: Q07DX002 (ip), vehicle: saline with Tween-80) is on record as 0 of 10 on day 20.

Turning to `CCCCCCCC(=O)[O][Hg][CH2]C1COC([CH2][Hg][O]C(=O)CCCCCCC)CO1` (configuration not stated), the T/C (dose: 6.25 mg/kg/injection, schedule: Q07DX002 (ip), vehicle: saline with Tween-80, evaluated on day 20) was 126 % of control. Moreover, under setting [2], the survivor count is recorded as 0 of 10 on day 20.

For the compound `S=c1nc[nH]c2nc[nH]c12`, the T/C runs as follows: (dose: 25.0 mg/kg/injection, schedule: Q07DX002 (ip), vehicle: Klucel (hydroxypropylcellulose) (HPC), evaluated on day 20) 3 [8 of 10 alive on day 20], 28 [9 of 10 alive on day 20], 35, 47, 54, 64 [9 of 10 alive on day 20], 78, 87, 91, 93, 113 % of control [8 of 10 alive on day 20]; under setting [7], 10, 19 [9 of 10 alive on day 20], 41, 54, 57, 58, 63, 64, 70, 126 % of control; (dose: 100.0 mg/kg/injection, schedule: Q07DX002 (ip), vehicle: Klucel (hydroxypropylcellulose) (HPC), evaluated on day 20) 1 [7 of 10 alive on day 20], 5 [9 of 10 alive on day 20], 9 [8 of 10 alive on day 20], 13, 14 [8 of 10 alive on day 20], 24 [8 of 10 alive on day 20], 27, 38 % of control; (dose: 200.0 mg/kg/injection, schedule: Q07DX002 (ip), vehicle: Klucel (hydroxypropylcellulose) (HPC), evaluated on day 20) 15 [9 of 10 alive on day 20] and 35 % of control; (dose: 400.0 mg/kg/injection, schedule: Q07DX002 (ip), vehicle: Klucel (hydroxypropylcellulose) (HPC), evaluated on day 20) 20 % of control [8 of 10 alive on day 20]. For the same compound, the survivor count is 5 of 10 on day 20 (dose: 50.0 mg/kg/injection, schedule: Q07DX002 (ip), vehicle: Klucel (hydroxypropylcellulose) (HPC)); 1 of 10 on day 20 and 6 of 10 on day 20 (dose: 100.0 mg/kg/injection, schedule: Q07DX002 (ip), vehicle: Klucel (hydroxypropylcellulose) (HPC)); 0 of 10 on day 20, 1 of 10 on day 20, 2 of 10 on day 20, 3 of 10 on day 20, 4 of 10 on day 20, 4 of 9 on day 20 (dose: 200.0 mg/kg/injection, schedule: Q07DX002 (ip), vehicle: Klucel (hydroxypropylcellulose) (HPC)); 0 of 10 on day 20 and 2 of 10 on day 20 under setting [1].

`O=C(O)c1ccc(C(=O)O)c(C(=O)O)c1.[NH-]C1CCCCC1[NH-].[Pt+2]`: the survivor count was 0 of 10 on day 20 and 4 of 10 on day 20 (dose: 50.0 mg/kg/injection, schedule: Q07DX002 (ip), vehicle: sodium bicarbonate); 0 of 10 on day 20 (dose: 75.0 mg/kg/injection, schedule: Q07DX002 (ip), vehicle: sodium bicarbonate); 0 of 10 on day 20 (dose: 115.0 mg/kg/injection, schedule: Q07DX002 (ip), vehicle: sodium bicarbonate).

Take `O=c1[nH]c(=O)n(C2CC(O)C(CO)O2)cc1Br` (configuration not stated): the T/C runs as follows: under setting [7], 148 % of control; (dose: 800.0 mg/kg/injection, schedule: Q07DX002 (ip), vehicle: Klucel (hydroxypropylcellulose) (HPC), evaluated on day 20) 134 % of control.

For the compound `CCCCCC#CC1OC12CCCCC2` (configuration not stated), the T/C under setting [5] is 125 % of control. Moreover, the survivor count is 6 of 10 on day 20 (dose: 400.0 mg/kg/injection, schedule: Q07DX002 (ip), vehicle: saline with Tween-80) and 5 of 10 on day 20 under setting [6].

The record behind these values is PubChem BioAssay AID212 (DTP/NCI, 2004).
